Key:
[1] = general procedure: Fmoc solid-phase peptide synthesis; 2-chlorotrityl resin; HATU, HCTU; settings: whole synthesis; for final LC-MS purity: LCMS analysis
[2] = solid-phase peptide synthesis; settings: whole synthesis; for final LC-MS purity: LCMS analysis

ClAc-Tyr-[N-Me]Ala-Asn-Pro-Dap-Leu-Hyp-Trp-Dab-[(S)-2-amino-3-(1-(carboxymethyl)-1H-indol-3-yl)propanoic acid]-[N-Me]Nle-[N-Me]Nle-Glu-Cys-Gly-[Pra]
final LC-MS purity ([1]; scale 0.4 mmol): 97%
isolated mass ([1]; scale 0.4 mmol): 46.7 mg

ClAc-[p-Methoxyphenylalanine]-Pip-Asn-Pro-His-Gln-Hyp-Trp-Dab-[(S)-2-amino-3-(1-(carboxymethyl)-1H-indol-3-yl)propanoic acid]-[N-Me]Nle-[N-Me]Nle-Leu-Cys-Gly-Asp(OtBu)-[Modified resin 13B]
isolated mass ([2]; scale 0.1 mmol, 2 TFA): 10.73 mg
isolated yield ([2]; scale 0.1 mmol, 2 TFA): 3.53% yield

ClAc-Tyr-[N-Me]Ala-Asn-Pro-Dap-Leu-Hyp-Trp-Dab-[(S)-2-amino-3-(1-(carboxymethyl)-1H-indol-3-yl)propanoic acid]-[N-Me]Nle-[N-Me]Nle-Leu-Cys-Gly-[Modified resin 13D]
isolated mass ([2]; scale 0.1 mmol, 2 TFA): 21.88 mg
isolated yield ([2]; scale 0.1 mmol, 2 TFA): 7.91% yield

ClAc-Tyr-[N-Me]Ala-Asp-Pro-His-Lys-Hyp-Trp-Lys-[(S)-2-amino-3-(1-(carboxymethyl)-1H-indol-3-yl)propanoic acid]-[N-Me]Nle-[N-Me]Nle-Glu-Cys-Gly-[(S)-propargylglycine]
final LC-MS purity ([1]; scale 0.4 mmol): 100%
isolated mass ([1]; scale 0.4 mmol): 56.8 mg

ClAc-Tyr-[N-Me]Ala-Asn-Pro-Dap-Leu-Hyp-Trp-Ser-Bzt-[N-Me]Nle-[N-Me]Nle-Arg-Cys-Gly-[(S)-azido-Dab]
final LC-MS purity ([2]; scale 0.2 mmol): 100%
isolated mass ([2]; scale 0.2 mmol): 50.4 mg

ClAc-Tyr-Pip-Asn-Pro-Dap-Leu-Hyp-Trp-Dab-[(S)-2-amino-3-(1-(carboxymethyl)-1H-indol-3-yl)propanoic acid]-[N-Me]Nle-[N-Me]Nle-Leu-Cys-Gly-[3-(2-aminoethoxy)propanoic acid]-Asp(OtBu)-[Modified resin 13B]
isolated mass ([2]; scale 0.1 mmol, 2 TFA): 22.02 mg
isolated yield ([2]; scale 0.1 mmol, 2 TFA): 7.55% yield

ClAc-Tyr-hPro-Asn-Pro-DapMe-Leu-Hyp-Trp-Dab-[(S)-2-amino-3-(1-(carboxymethyl)-1H-indol-3-yl)propanoic acid]-mNle-mNle-Glu-Cys-Gly-[(S)-propargylglycine]
final LC-MS purity ([2]; scale 0.1 mmol): 100%
isolated mass ([2]; scale 0.1 mmol): 218.0 mg

ClAc-Tyr-hPro-Asn-Pro-Dap-Leu-Hyp-Trp-Dab-[(S)-2-amino-3-(1-(carboxymethyl)-H-indol-3-yl)propanoic acid]-mNle-mNle-Leu-Cys-Gly-[(S)-propargylglycine]
final LC-MS purity ([2]; scale 0.1 mmol): 98%
isolated mass ([2]; scale 0.1 mmol): 158.7 mg

(6S,14S)-1-((7S,13R,16S,19S,22S,25S,28S,31S,33aS,35R,39S,42S,44aS,50S,52aR)-31-((1H-indol-3-yl)methyl)-50-(2-amino-2-oxoethyl)-28-(2-aminoethyl)-42-(aminomethyl)-19,22-dibutyl-25-((1-(carboxymethyl)-1H-indol-3-yl)methyl)-35-hydroxy-7-(4-hydroxybenzyl)-16,39-diisobutyl-20,23-dimethyl-6,9,15,18,21,24,27,30,33,38,41,44,49,52-tetradecaoxopentacontahydro-1H-pyrido[1,2-g]dipyrrolo[1,2-m:1′,2′-v][1,4,7,10,13,16,19,22,25,28,31,34,37,40,43]thiatetradecaazacyclopentatetracontin-13-yl)-1,4,9,16-tetraoxo-2,5,10,15-tetraazadotriacontane-6,14,32-tricarboxylic acid
isolated mass ([2]; scale 0.1 mmol, 2 TFA): 3.66 mg
isolated yield ([2]; scale 0.1 mmol, 2 TFA): 1.296% yield

ClAc-Tyr-Pip-Asn-Pro-Dap-Leu-Hyp-Trp-Dab-[(S)-2-amino-3-(1-(carboxymethyl)-1H-indol-3-yl)propanoic acid]-[N-Me]Nle-[N-Me]Nle-Leu-Cys-Gly-[4-aminobutanoic acid]-Asp(OtBu)-[Modified resin 13B]
isolated mass ([2]; scale 0.1 mmol, 2 TFA): 17.91 mg
isolated yield ([2]; scale 0.1 mmol, 2 TFA): 6.08% yield

ClAc-F3Phe-mPhe-mNle-dHyp-Asp-Val-mPhe-Asp-dPro-Trp-Tyr-Leu-Cys-Gly-[(S)-propargylglycine]
final LC-MS purity ([2]; scale 0.1 mmol): 100%
isolated mass ([2]; scale 0.1 mmol): 70.7 mg

ClAc-Tyr-[N-Me]Ala-Asn-Pro-Dap-Leu-Hyp-Trp-Dab-[(S)-2-amino-3-(1-(carboxymethyl)-1H-indol-3-yl)propanoic acid]-[N-Me]Nle-[N-Me]Nle-Asp-Cys-[Pra]
final LC-MS purity ([1]; scale 0.8 mmol): 100%
isolated mass ([1]; scale 0.8 mmol): 147.7 mg

ClAc-Tyr-hPro-Asn-Pro-DapMe-Leu-Hyp-Trp-Dab-[(S)-2-amino-3-(1-(carboxymethyl)-1H-indol-3-yl)propanoic acid]-mNle-mNle-Leu-Cys-Gly-[(S)-propargylglycine]
final LC-MS purity ([2]; scale 0.1 mmol): 98%
isolated mass ([2]; scale 0.1 mmol): 241.9 mg

ClAc-Tyr-mAla-Asp-Pro-His-Gln-Hyp-Trp-Ser-Trp-mNle-mNle-Glu-Cys-Gly-[(S)-propargylglycine]-Gly
final LC-MS purity ([2]; scale 0.1 mmol): 98%
isolated mass ([2]; scale 0.1 mmol): 20.2 mg

ClAc-Tyr-mAla-Asn-Pro-Dap-Leu-Hyp-Trp-Ser-[(S)-2-amino-3-(1-(carboxymethyl)-1H-indol-3-yl)propanoic acid]-mNle-mNle-E-Cys-Gly-[(S)-propargylglycine]
final LC-MS purity ([2]; scale 0.1 mmol): 98%
isolated mass ([2]; scale 0.1 mmol): 42.1 mg

ClAc-Tyr-[N-Me]Ala-Asn-Pro-Dap-Leu-Hyp-Trp-Ser-Bzt-[N-Me]Nle-[N-Me]Nle-Arg-Cys-Gly-Gly-[(S)-azido-Dab]
final LC-MS purity ([2]; scale 0.1 mmol): 100%
isolated mass ([2]; scale 0.1 mmol): 9.3 mg

ClAc-Tyr-mAla-Asp-Pro-His-Gln-Hyp-Trp-Ser-Trp-mNle-mNle-Glu-Cys-Gly-[(S)-propargylglycine]
final LC-MS purity ([2]; scale 0.2 mmol): 98%
isolated mass ([2]; scale 0.2 mmol): 23.9 mg

ClAc-Tyr-mAla-Asp-Pro-His-Lys-Hyp-Trp-Lys-Trp-mNle-mNle-Glu-Cys-Gly-[(S)-propargylglycine]-Gly
final LC-MS purity ([2]; scale 0.2 mmol): 99%
isolated mass ([2]; scale 0.2 mmol): 97.7 mg

ClAc-Tyr-mAla-Asp-Pro-His-Lys-Hyp-Trp-Lys-Trp-mNle-mNle-Glu-Cys-Gly-[(S)-propargylglycine]-Asp
final LC-MS purity ([2]; scale 0.2 mmol): 100%
isolated mass ([2]; scale 0.2 mmol): 59.5 mg

ClAc-Tyr-Pip-Asn-Pro-Dap-Leu-Hyp-Trp-Dab-[(S)-2-amino-3-(1-(carboxymethyl)-1H-indol-3-yl)propanoic acid]-[N-Me]Nle-[N-Me]Nle-Leu-Cys-Gly-[Modified resin 13D]
isolated mass ([2]; scale 0.1 mmol, 2 TFA): 20.36 mg
isolated yield ([2]; scale 0.1 mmol, 2 TFA): 6.90% yield

ClAc-Tyr-mAla-Asp-Pro-His-Lys-Hyp-Trp-Lys-Trp-mNle-mNle-Glu-Cys-Gly-[(S)-propargylglycine]
final LC-MS purity ([2]; scale 0.2 mmol): 99%
isolated mass ([2]; scale 0.2 mmol): 87.3 mg

ClAc-Tyr-[N-Me]Ala-Asn-Pro-Dap-Leu-Hyp-Trp-Ser-Bzt-[N-Me]Nle-[N-Me]Nle-Arg-Cys-Gly-[(S)-propargylglycine]
final LC-MS purity ([2]; scale 0.2 mmol): 100%
isolated mass ([2]; scale 0.2 mmol): 37.8 mg

ClAc-Tyr-[N-Me]Ala-Asn-Pro-Dap-Leu-Hyp-Trp-Dab-[(S)-2-amino-3-(1-(carboxymethyl)-1H-indol-3-yl)propanoic acid]-[N-Me]Nle-[N-Me]Nle-Glu-Cys-[Pra]
final LC-MS purity ([1]; scale 0.8 mmol): 100%
isolated mass ([1]; scale 0.8 mmol): 154.1 mg

ClAc-Tyr-[N-Me]Ala-Asn-Pro-Dap-Leu-Hyp-Trp-Ser-[(S)-2-amino-3-(1-(carboxymethyl)-1H-indol-3-yl)propanoic acid]-[N-Me]Nle-[N-Me]Nle-Leu-Cys-Gly-[(S)-propargylglycine]
final LC-MS purity ([2]; scale 0.2 mmol): 99%
isolated mass ([2]; scale 0.2 mmol): 39.9 mg

ClAc-Tyr-[N-Me]Ala-Asn-Pro-Dap-Leu-Hyp-Trp-Dab-[(S)-2-amino-3-(1-(carboxymethyl)-1H-indol-3-yl)propanoic acid]-[N-Me]Nle-[N-Me]Nle-Leu-Cys-[Pra]
final LC-MS purity ([1]; scale 0.8 mmol): 100%
isolated mass ([1]; scale 0.8 mmol): 152.1 mg

ClAc-Tyr-mAla-Asp-Pro-His-Lys-Hyp-Trp-Lys-“Trp”-mNle-mNle-Glu-Cys-Gly-[(S)-propargylglycine]-Gly
final LC-MS purity ([2]; scale 0.2 mmol): 100%
isolated mass ([2]; scale 0.2 mmol): 57.9 mgs

ClAc-Tyr-[N-Me]Ala-Asn-Pro-Dap-Leu-Hyp-Trp-Dab-[(S)-2-amino-3-(1-(carboxymethyl)-1H-indol-3-yl)propanoic acid]-[N-Me]Nle-[N-Me]Nle-Leu-Cys-Gly-Gly-[(S)-propargylglycine]
final LC-MS purity ([1]; scale 0.8 mmol): 99%
isolated mass ([1]; scale 0.8 mmol): 102.7 mg

ClAc-Tyr-mAla-Asp-Pro-His-Lys-Hyp-Trp-Lys-[(S)-2-amino-3-(1-(carboxymethyl)-1H-indol-3-yl)propanoic acid]-mNle-mNle-Glu-Cys-Gly-[(S)-propargylglycine]
final LC-MS purity ([2]; scale 0.2 mmol): 100%
isolated mass ([2]; scale 0.2 mmol): 78.3 mg

ClAc-Tyr-mAla-Asn-Pro-Dap-Leu-Hyp-Trp-Ser-Trp-mNle-mNle-Arg-Cys-Gly-[(S)-propargylglycine]
final LC-MS purity ([2]; scale 0.2 mmol): 98%
isolated mass ([2]; scale 0.2 mmol): 44.2 mg

ClAc-[p-Methoxyphenylalanine]-Pip-Asp-Pro-His-Gln-Hyp-Trp-Dab-[(S)-2-amino-3-(1-(carboxymethyl)-1H-indol-3-yl)propanoic acid]-[N-Me]Nle-[N-Me]Nle-Leu-Cys-Gly-Asp(OtBu)-[Modified resin 13B]
isolated mass ([2]; scale 0.1 mmol, 2 TFA): 12.14 mg
isolated yield ([2]; scale 0.1 mmol, 2 TFA): 4.22% yield

ClAc-Tyr-mAla-Asp-Pro-His-Lys-Hyp-Trp-Lys-“Trp”-mNle-mNle-Glu-Cys-Gly-[(S)-propargylglycine]-Asp
final LC-MS purity ([2]; scale 0.2 mmol): 94%
isolated mass ([2]; scale 0.2 mmol): 66.6 mgs

ClAc-Tyr-Pip-Asn-Pro-Dap-Leu-Hyp-Trp-Dab-[(S)-2-amino-3-(1-(carboxymethyl)-1H-indol-3-yl)propanoic acid]-[N-Me]Nle-[N-Me]Nle-Leu-Cys-Gly-[3-(2-(2-aminoethoxy)ethoxy)propanoic acid]-Asp(OtBu)-[Modified resin 13B]
isolated mass ([2]; scale 0.1 mmol, 2 TFA): 18.29 mg
isolated yield ([2]; scale 0.1 mmol, 2 TFA): 5.85% yield

ClAc-F3Phe-mPhe-mNle-dPro-Asp-Val-mPhe-Orn-dPro-Trp-Tyr-Leu-Cys-Gly-[(S)-propargylglycine]
final LC-MS purity ([2]; scale 0.1 mmol): 95%
isolated mass ([2]; scale 0.1 mmol): 88.5 mg

ClAc-Tyr-Pip-Asn-Pro-Dap-Leu-Hyp-Trp-Dab-[(S)-2-amino-3-(1-(carboxymethyl)-1H-indol-3-yl)propanoic acid]-[N-Me]Nle-[N-Me]Nle-Leu-Cys-Gly-[5-aminopentanoic acid]-Asp(OtBu)-[Modified resin 13B]
isolated mass ([2]; scale 0.1 mmol, 2 TFA): 10.63 mg
isolated yield ([2]; scale 0.1 mmol, 2 TFA): 3.48% yield
